Assay results: US9867795B2, “Nitrated lipids and methods of making and using thereof” (The UAB Research Foundation, priority 2004, dated 2018)

How the values were obtained:
[1] = cited from earlier work
[2] = Quantitation of endogenous LNO2 in human red cells and plasma by HPLC ESI MS/MS

| Compound | share of LNO2 that is esterified ([1]; blood / tissue compartments) [%] | Net blood level of esterified LNO2 ([1]; healthy humans (ref 9)) [nM] | Net blood level of free LNO2 ([1]; healthy humans (ref 9)) [nM] | LNO2 concentration in blood of healthy individuals ([1]; red cells and plasma) [nM] | [LNO2], whole blood, total ([1]; values obtained from ref. 9, assuming a 40% hematocrit) [nM] | [LNO2], packed red cells, esterified ([1]; values obtained from ref. 9) [nM] | [LNO2], packed red cells, free ([1]; values obtained from ref. 9) [nM] | [LNO2], packed red cells, total ([1]; values obtained from ref. 9) [nM] | [LNO2], plasma, esterified ([1]; values obtained from ref. 9) [nM] | [LNO2], plasma, free ([1]; values obtained from ref. 9) [nM] | [LNO2], plasma, total ([1]; values obtained from ref. 9) [nM] | free LNO2 as share of total in plasma [2] [%] | LNO2 concentration, packed red cells, free ([2]; healthy human volunteers, n = 10) [nM] | Concentration in plasma ([1]; human blood, literature refs 35, 36) [nM] |
| --- | --- | --- | --- | --- | --- | --- | --- | --- | --- | --- | --- | --- | --- | --- |
| 10-nitro-9,12-octadecadienoic acid and 12-nitro-9,12-octadecadienoic acid [LNO2] | ~80 | ~550 | ~80 | ~500 | 477 ± 128 | 199 ± 121 | 50 ± 17 | 249 ± 104 | 550 ± 275 | 79 ± 35 | 630 ± 240 | 85 | 25 ± 8 | – |
| O=NO [NO2^−, nitrite] | – | – | – | – | – | – | – | – | – | – | – | – | – | 205 ± 21 |
